# Laboratory results: patent US10702592B2, “Peptides and combination of peptides for use in immunotherapy against NHL and other cancers” (Immatics Biotechnologies GmbH, priority 2016, dated 2020)
# Test system: other tumor types (tumor samples vs normal tissues)
# Assay: LC-MS detection / over-presentation of peptides on additional tumor types
# Parameters: species or system human
# Conditions: for Other relevant organs/diseases: additional tumor types on which the peptide was found: over-presented on more than 5% of measured tumor samples, or presented on more than 5% with ratio of geometric means tumor vs normal tissues larger than 3; for Other relevant organs / diseases (additional tumor types with over-presentation): over-presented on >5% of measured tumor samples, or presented on >5% with ratio of geometric means tumor vs normal >3
Substance,Other relevant organs/diseases,Other relevant organs / diseases (additional tumor types with over-presentation),also measured
209 (FLLDTISGL; listed as Homo sapiens) [compound 209],"CRC, HCC, CLL, AML, BRCA, Melanoma, Urinary bladder cancer, Uterine Cancer",–,–
39 (QLLPQGIVPAL; listed as Homo sapiens) [compound 39],"CLL, BRCA, OC, Urinary bladder cancer, Uterine Cancer",HCC,–
66 (KLAPIPVEL; listed as Homo sapiens) [compound 66],–,"CLL, AML",–
48 (KILDEDLYI; listed as Homo sapiens) [compound 48],"CLL, BRCA, Melanoma, Esophageal Cancer, Gallbladder Cancer, Bile Duct Cancer","AML, HNSCC",–
235 (SLDVYELFL; listed as Homo sapiens) [compound 235],"CRC, BRCA, Melanoma, Esophageal Cancer, OC, Urinary bladder cancer, Uterine Cancer, Gallbladder Cancer, Bile Duct Cancer",HNSCC,–
228 (IIAEYLSYV; listed as Homo sapiens) [compound 228],CLL,"AML, HNSCC",–
281 (TLQTVPLTTV; listed as Homo sapiens) [compound 281],CLL,AML,–
SEQ ID NO.: 5 (VLQGLTFTL; listed as Homo sapiens),–,–,peptide additionally detected on bile duct and gallbladder cancers (positive/measured samples): 2/17; peptide additionally detected on breast cancers (positive/measured samples): 1/18; peptide additionally detected on chronic lymphocytic leukemias (positive/measured samples): 1/17; peptide additionally detected on lung cancers (positive/measured samples): 4/101; peptide additionally detected on melanomas (positive/measured samples): 2/16; peptide additionally detected on ovarian cancers (positive/measured samples): 2/20; peptide additionally detected on urinary bladder cancers (positive/measured samples): 1/15
198 (GLLSAVSSV; listed as Homo sapiens) [compound 198],"AML, Gallbladder Cancer, Bile Duct Cancer",HNSCC,–
57 (LQIGDFVSV; listed as Homo sapiens) [compound 57],"SCLC, CLL",–,–
293 (GLAMVEAISYV; listed as Homo sapiens) [compound 293],"CLL, Urinary bladder cancer, Uterine Cancer",–,–
70 (VLIEILQKA; listed as Homo sapiens) [compound 70],"AML, BRCA, OC, Urinary bladder cancer, Uterine Cancer","SCLC, HNSCC",–
250 (VLTNVGAAL; listed as Homo sapiens) [compound 250],"CLL, Uterine Cancer",–,–
300 (IVLERNPEL; listed as Homo sapiens) [compound 300],–,AML,–
42 (YLQDLVERA; listed as Homo sapiens) [compound 42],"CLL, Uterine Cancer",–,–
130 (VIFSYVLGV; listed as Homo sapiens) [compound 130],"AML, Uterine Cancer",–,–
306 (AQVALVNEV; listed as Homo sapiens) [compound 306],"Urinary bladder cancer, Uterine Cancer","Esophageal Cancer, AML",–
208 (FLAVSLPLL; listed as Homo sapiens) [compound 208],CLL,–,–
206 (SAVSGQWEV; listed as Homo sapiens) [compound 206],CLL,–,–

Substance,Other relevant organs/diseases,Other relevant organs / diseases (additional tumor types with over-presentation),also measured
234 (NLQRTVVTV; listed as Homo sapiens) [compound 234],"RCC, CLL, Uterine Cancer",–,–
59 (RLHREVAQV; listed as Homo sapiens) [compound 59],Esophageal Cancer,–,–
301 (LQFDGIHVV; listed as Homo sapiens) [compound 301],"SCLC, Brain Cancer",HNSCC,–
197 (YLLTDNVVKL; listed as Homo sapiens) [compound 197],"RCC, BRCA",–,–
251 (VLYELFTYI; listed as Homo sapiens) [compound 251],CLL,"AML, HNSCC",–
247 (KVLEMETTV; listed as Homo sapiens) [compound 247],Uterine Cancer,BRCA,–
205 (TLFYESPHL; listed as Homo sapiens) [compound 205],–,CLL,–
63 (ALIEEAYGL; listed as Homo sapiens) [compound 63],CLL,–,–
73 (YLGEEYPEV; listed as Homo sapiens) [compound 73],"SCLC, CRC, CLL, Melanoma, Uterine Cancer",HNSCC,–
230 (IMDDDSYGV; listed as Homo sapiens) [compound 230],CLL,–,–
311 (YLHRQVAAV; listed as Homo sapiens) [compound 311],"SCLC, Melanoma, OC, Urinary bladder cancer",–,–
261 (FLPETRIMTSV; listed as Homo sapiens) [compound 261],"SCLC, CLL, Melanoma, OC, Urinary bladder cancer",–,–
310 (VMAEAPPGV; listed as Homo sapiens) [compound 310],Uterine Cancer,–,–
210 (FLAEQFEFL; listed as Homo sapiens) [compound 210],CLL,–,–
304 (ALIRLDDLFL; listed as Homo sapiens) [compound 304],"RCC, CLL, Melanoma",–,–
248 (NLLEQFILL; listed as Homo sapiens) [compound 248],"NSCLC, SCLC, RCC, Brain Cancer, CRC, HCC, CLL, AML, Melanoma, Urinary bladder cancer, Uterine Cancer",HNSCC,–
284 (KLQEQIHRV; listed as Homo sapiens) [compound 284],AML,–,–
297 (ILQNGLETL; listed as Homo sapiens) [compound 297],–,"Gallbladder Cancer, Bile Duct Cancer, AML",–
288 (RLAPEIVSA; listed as Homo sapiens) [compound 288],HCC,–,–

Substance,Other relevant organs/diseases,Other relevant organs / diseases (additional tumor types with over-presentation),also measured
127 (HLMEENMIVYV; listed as Homo sapiens) [compound 127],Melanoma,–,–
68 (QIAAFLFTV; listed as Homo sapiens) [compound 68],"CLL, Urinary bladder cancer, Uterine Cancer",AML,–
58 (QLAPFLPQL; listed as Homo sapiens) [compound 58],"OC, Urinary bladder cancer",–,–
181 (LLFDQNDKV; listed as Homo sapiens) [compound 181],"RCC, HCC, BRCA, Melanoma, Urinary bladder cancer, Uterine Cancer",–,–
278 (FLLFINHRL; listed as Homo sapiens) [compound 278],CLL,–,–
241 (FIPDFIPAV; listed as Homo sapiens) [compound 241],SCLC,–,–
129 (SLFEASQQL; listed as Homo sapiens) [compound 129],"CLL, Melanoma, Uterine Cancer, Gallbladder Cancer, Bile Duct Cancer",–,–
240 (ALVPTPALFYL; listed as Homo sapiens) [compound 240],BRCA,HNSCC,–
282 (YLLEQGAQV; listed as Homo sapiens) [compound 282],"SCLC, HCC, CLL, Melanoma","AML, HNSCC",–
223 (FLQDIPDGLFL; listed as Homo sapiens) [compound 223],CLL,–,–
283 (ALMPVTPQA; listed as Homo sapiens) [compound 283],CLL,–,–
193 (SLADSMPSL; listed as Homo sapiens) [compound 193],"BRCA, Uterine Cancer",–,–
184 (AVLGTSWQL; listed as Homo sapiens) [compound 184],"CRC, CLL, AML",–,–
245 (KLIQLPVVYV; listed as Homo sapiens) [compound 245],"CLL, BRCA, OC, Urinary bladder cancer",–,–
SEQ ID NO.: 1 (LLSGQLPTI; listed as Homo sapiens),–,–,peptide additionally detected on chronic lymphocytic leukemias (positive/measured samples): 1/17; peptide additionally detected on lung cancers (positive/measured samples): 1/84; peptide additionally detected on ovarian cancers (positive/measured samples): 1/20; peptide additionally detected on pancreatic cancer cell lines (positive/measured samples): 1/20
SEQ ID NO.: 41 (ILASIFETV; listed as Homo sapiens),–,–,peptide additionally detected on acute myelogenous leukemias (positive/measured samples): 4/18; peptide additionally detected on bile duct and gallbladder cancers (positive/measured samples): 2/17; peptide additionally detected on breast cancers (positive/measured samples): 1/18; peptide additionally detected on chronic lymphocytic leukemias (positive/measured samples): 1/17; peptide additionally detected on kidney cancers (positive/measured samples): 2/22; peptide additionally detected on lung cancers (positive/measured samples): 10/101; peptide additionally detected on melanomas (positive/measured samples): 4/16; peptide additionally detected on ovarian cancers (positive/measured samples): 1/20; peptide additionally detected on pancreas cancers (positive/measured samples): 2/19; peptide additionally detected on pancreatic cancer cell lines (positive/measured samples): 3/20; peptide additionally detected on prostate cancers (positive/measured samples): 1/38; peptide additionally detected on urinary bladder cancers (positive/measured samples): 1/15
314 (LIDDKGTIKL; listed as Homo sapiens) [compound 314],–,Urinary Bladder Cancer,–
309 (SLSFVSPSL; listed as Homo sapiens) [compound 309],"CLL, BRCA, Esophageal Cancer, Uterine Cancer","AML, HNSCC",–
